Test results taken from US20210324109A1.
Results are given in words; binding and its absence hold for the method and conditions named. Some results given as binding are weak or reduced against the parent protein; the word gives no strength.

Sequences of proteins named here, by UniProt entry; tags and fusion partners are left off. Residues count along the entry.
UniProt P00742, residues 41-488: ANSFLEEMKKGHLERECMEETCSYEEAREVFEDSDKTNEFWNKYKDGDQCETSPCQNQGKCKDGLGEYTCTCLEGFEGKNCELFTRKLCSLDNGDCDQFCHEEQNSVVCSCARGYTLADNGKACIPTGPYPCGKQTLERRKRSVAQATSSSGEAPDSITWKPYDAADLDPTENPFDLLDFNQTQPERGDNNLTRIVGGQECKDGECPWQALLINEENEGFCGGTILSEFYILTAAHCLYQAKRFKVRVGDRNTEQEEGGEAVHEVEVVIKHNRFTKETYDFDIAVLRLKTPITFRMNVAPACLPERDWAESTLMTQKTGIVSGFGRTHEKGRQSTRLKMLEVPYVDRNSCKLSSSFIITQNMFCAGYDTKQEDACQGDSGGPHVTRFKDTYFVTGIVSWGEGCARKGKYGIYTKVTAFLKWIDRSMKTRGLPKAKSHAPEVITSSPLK

Tests used:
[1] = target: Factor X (Enzyme Research Laboratories) (UniProt P00742); test: ELISA, plate-coated Factor X
[2] = target: Factor X (Enzyme Research Laboratories) (UniProt P00742); test: ELISA, plate-coated Factor X 1 µg/ml, absorbance at 405 nm

B1: humanized B26 antibody (hB26-F123e4) (antibody, V domains shown)
VH: QVQLVQSGPDVKKPGASVKVSCKASGYMFSDNNMDWARQAPGQGLEWMGDINTKSGGSIYNQKFKGRVIMTIDKSTGTAYMELRSLRSDDTAIYYCARRRSYGYYFDYWGQGTLVTVSS
VL: DIVLTQSQKFMSTSVGDRVSITCKASQNVGTAVAWYQQKPGQSPKALIYSASYRYSGVPDRFTGSGSGTDFTLTISNVQSEDLAEYFCQQYNSYPLTFGAGTKLEIKR
modifications: N-terminal glutamine assumed to be pyroglutamylated (Pyr(Q) at H1)
[1]
  binding: binds
[2]
  binding: binds
